Experimental data: paper PMC4226561
Results are given in words; binding and its absence hold for the method and conditions named. Some entries that bind do so weakly or less than the wild type. Sequences can lack the tags named with a protein.

T1: CESA1 (cellulose synthase, primary cell wall), MbYTH fusion (Arabidopsis thaliana) (UniProt O48946)
T1 sequence: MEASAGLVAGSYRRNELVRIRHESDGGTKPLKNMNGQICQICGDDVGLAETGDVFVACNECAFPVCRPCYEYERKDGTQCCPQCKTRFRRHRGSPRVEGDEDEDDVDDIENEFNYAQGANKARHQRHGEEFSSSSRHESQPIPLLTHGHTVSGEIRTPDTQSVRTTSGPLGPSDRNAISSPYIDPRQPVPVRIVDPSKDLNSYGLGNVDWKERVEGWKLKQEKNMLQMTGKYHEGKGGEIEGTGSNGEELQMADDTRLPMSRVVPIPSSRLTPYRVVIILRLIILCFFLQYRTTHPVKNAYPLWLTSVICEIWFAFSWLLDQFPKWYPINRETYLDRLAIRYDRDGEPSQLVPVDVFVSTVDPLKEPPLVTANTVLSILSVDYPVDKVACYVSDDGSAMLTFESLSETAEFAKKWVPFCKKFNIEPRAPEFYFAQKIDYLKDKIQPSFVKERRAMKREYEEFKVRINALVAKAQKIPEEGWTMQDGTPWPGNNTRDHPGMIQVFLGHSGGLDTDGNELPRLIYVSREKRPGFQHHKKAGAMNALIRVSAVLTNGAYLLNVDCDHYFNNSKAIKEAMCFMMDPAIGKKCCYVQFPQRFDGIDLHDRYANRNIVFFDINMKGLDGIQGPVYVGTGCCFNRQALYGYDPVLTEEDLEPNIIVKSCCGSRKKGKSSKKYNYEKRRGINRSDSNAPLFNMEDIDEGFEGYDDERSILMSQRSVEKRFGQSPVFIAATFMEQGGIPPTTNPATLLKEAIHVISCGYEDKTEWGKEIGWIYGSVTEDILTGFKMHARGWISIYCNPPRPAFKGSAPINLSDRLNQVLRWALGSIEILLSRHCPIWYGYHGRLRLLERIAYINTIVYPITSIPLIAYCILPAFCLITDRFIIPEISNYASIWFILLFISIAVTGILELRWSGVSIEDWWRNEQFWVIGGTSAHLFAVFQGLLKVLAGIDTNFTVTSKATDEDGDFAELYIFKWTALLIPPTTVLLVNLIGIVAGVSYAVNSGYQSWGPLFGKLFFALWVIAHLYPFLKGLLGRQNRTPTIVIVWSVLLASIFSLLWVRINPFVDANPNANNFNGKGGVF

T2: CESA4 (cellulose synthase, secondary cell wall), MbYTH fusion (Arabidopsis thaliana) (UniProt Q84JA6)
T2 sequence: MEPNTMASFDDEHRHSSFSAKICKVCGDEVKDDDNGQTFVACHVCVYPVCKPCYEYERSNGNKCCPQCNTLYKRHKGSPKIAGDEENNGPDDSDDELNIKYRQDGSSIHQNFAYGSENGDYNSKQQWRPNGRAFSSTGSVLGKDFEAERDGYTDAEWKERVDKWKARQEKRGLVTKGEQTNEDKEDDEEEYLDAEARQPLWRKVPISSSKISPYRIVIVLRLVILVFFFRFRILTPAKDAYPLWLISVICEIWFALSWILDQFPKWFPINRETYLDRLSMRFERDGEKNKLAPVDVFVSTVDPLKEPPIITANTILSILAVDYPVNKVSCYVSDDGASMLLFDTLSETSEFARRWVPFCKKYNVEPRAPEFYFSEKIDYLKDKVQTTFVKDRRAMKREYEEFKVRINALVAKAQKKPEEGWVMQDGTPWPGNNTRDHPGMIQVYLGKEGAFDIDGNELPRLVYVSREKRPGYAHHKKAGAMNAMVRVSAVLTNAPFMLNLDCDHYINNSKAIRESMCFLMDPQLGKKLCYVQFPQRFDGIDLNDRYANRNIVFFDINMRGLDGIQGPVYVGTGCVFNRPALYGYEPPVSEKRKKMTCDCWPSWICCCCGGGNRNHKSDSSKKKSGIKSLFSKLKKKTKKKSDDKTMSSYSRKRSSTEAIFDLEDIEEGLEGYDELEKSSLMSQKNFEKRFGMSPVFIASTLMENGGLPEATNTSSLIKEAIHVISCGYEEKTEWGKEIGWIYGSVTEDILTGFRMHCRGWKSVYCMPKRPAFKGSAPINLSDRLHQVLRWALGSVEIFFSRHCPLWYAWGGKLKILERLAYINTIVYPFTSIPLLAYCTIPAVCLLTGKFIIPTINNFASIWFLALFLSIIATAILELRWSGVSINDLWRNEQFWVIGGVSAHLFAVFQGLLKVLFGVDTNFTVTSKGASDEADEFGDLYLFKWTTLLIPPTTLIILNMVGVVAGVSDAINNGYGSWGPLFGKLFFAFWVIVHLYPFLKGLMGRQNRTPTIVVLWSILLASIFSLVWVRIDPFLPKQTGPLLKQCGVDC

B1: KORRIGAN1 (KOR1), complete protein (AA 1 to 621), MbYTH fusion (protein, UniProt Q38890 1-621)
chain: MYGRDPWGGPLEINTADSATDDDRSRNLNDLDRAALSRPLDETQQSWLLGPTEQKKKKYVDLGCIIVSRKIFVWTVGTLVAAALLAGFITLIVKTVPRHHPKTPPPDNYTIALHKALKFFNAQKSGKLPKHNNVSWRGNSGLQDGKGETGSFYKDLVGGYYDAGDAIKFNFPMAYAMTMLSWSVIEYSAKYEAAGELTHVKELIKWGTDYFLKTFNSTADSIDDLVSQVGSGNTDDGNTDPNDHYCWMRPEDMDYKRPVTTCNGGCSDLAAEMAAALASASIVFKDNKEYSKKLVHGAKVVYQFGRTRRGRYSAGTAESSKFYNSSMYWDEFIWGGAWMYYATGNVTYLNLITQPTMAKHAGAFWGGPYYGVFSWDNKLAGAQLLLSRLRLFLSPGYPYEEILRTFHNQTSIVMCSYLPIFNKFNRTNGGLIELNHGAPQPLQYSVNAAFLATLYSDYLDAADTPGWYCGPNFYSTSVLRDFARSQIDYILGKNPRKMSYVVGFGTKYPRHVHHRGASIPKNKVKYNCKGGWKWRDSKKPNPNTIEGAMVAGPDKRDGYRDVRMNYNYTEPTLAGNAGLVAALVALSGEEEATGKIDKNTIFSAVPPLFPTPPPPPAPWKP
B2: KOR1N, N-terminal part of KOR1 with the transmembrane domain (AA 1 to 94), MbYTH fusion (domain or fragment, UniProt Q38890 1-94)
chain: MYGRDPWGGPLEINTADSATDDDRSRNLNDLDRAALSRPLDETQQSWLLGPTEQKKKKYVDLGCIIVSRKIFVWTVGTLVAAALLAGFITLIVK
B3: KOR1C, transmembrane domain plus the C-terminal part of KOR1 (AA 70 to 621), MbYTH fusion (domain or fragment, UniProt Q38890 70-621)
chain: KIFVWTVGTLVAAALLAGFITLIVKTVPRHHPKTPPPDNYTIALHKALKFFNAQKSGKLPKHNNVSWRGNSGLQDGKGETGSFYKDLVGGYYDAGDAIKFNFPMAYAMTMLSWSVIEYSAKYEAAGELTHVKELIKWGTDYFLKTFNSTADSIDDLVSQVGSGNTDDGNTDPNDHYCWMRPEDMDYKRPVTTCNGGCSDLAAEMAAALASASIVFKDNKEYSKKLVHGAKVVYQFGRTRRGRYSAGTAESSKFYNSSMYWDEFIWGGAWMYYATGNVTYLNLITQPTMAKHAGAFWGGPYYGVFSWDNKLAGAQLLLSRLRLFLSPGYPYEEILRTFHNQTSIVMCSYLPIFNKFNRTNGGLIELNHGAPQPLQYSVNAAFLATLYSDYLDAADTPGWYCGPNFYSTSVLRDFARSQIDYILGKNPRKMSYVVGFGTKYPRHVHHRGASIPKNKVKYNCKGGWKWRDSKKPNPNTIEGAMVAGPDKRDGYRDVRMNYNYTEPTLAGNAGLVAALVALSGEEEATGKIDKNTIFSAVPPLFPTPPPPPAPWKP
B4: KOR1NOTMD, KOR1 without the transmembrane domain (AA 1 to 69+95 to 621), MbYTH prey (domain or fragment, UniProt Q38890)
chain: MYGRDPWGGPLEINTADSATDDDRSRNLNDLDRAALSRPLDETQQSWLLGPTEQKKKKYVDLGCIIVSRTVPRHHPKTPPPDNYTIALHKALKFFNAQKSGKLPKHNNVSWRGNSGLQDGKGETGSFYKDLVGGYYDAGDAIKFNFPMAYAMTMLSWSVIEYSAKYEAAGELTHVKELIKWGTDYFLKTFNSTADSIDDLVSQVGSGNTDDGNTDPNDHYCWMRPEDMDYKRPVTTCNGGCSDLAAEMAAALASASIVFKDNKEYSKKLVHGAKVVYQFGRTRRGRYSAGTAESSKFYNSSMYWDEFIWGGAWMYYATGNVTYLNLITQPTMAKHAGAFWGGPYYGVFSWDNKLAGAQLLLSRLRLFLSPGYPYEEILRTFHNQTSIVMCSYLPIFNKFNRTNGGLIELNHGAPQPLQYSVNAAFLATLYSDYLDAADTPGWYCGPNFYSTSVLRDFARSQIDYILGKNPRKMSYVVGFGTKYPRHVHHRGASIPKNKVKYNCKGGWKWRDSKKPNPNTIEGAMVAGPDKRDGYRDVRMNYNYTEPTLAGNAGLVAALVALSGEEEATGKIDKNTIFSAVPPLFPTPPPPPAPWKP

Tests used:
[1] = molecular target: T1, CESA1 (cellulose synthase, primary cell wall), MbYTH fusion (Arabidopsis thaliana); experiment: two-hybrid; split-ubiquitin membrane-based yeast two-hybrid (MbYTH) in S. cerevisiae NMY51; bait fused to Cub-TF, prey to NubG; 100 colonies of each combination spotted on selective medium with 3-AT, 30°C, three days, grown spots counted; called 'in vitro' by the paper
[2] = molecular target: T2, CESA4 (cellulose synthase, secondary cell wall), MbYTH fusion (Arabidopsis thaliana); experiment: as above

Binder | binding [1] | binding [2]
B1 | binds | binds
B2 | binds | binds
B3 | binds | binds
KIFVWTVGTLVAAALLAGFITLIVK (domain or fragment, UniProt Q38890 70-94) [KOR1TMD, only the transmembrane domain of KOR1 (AA 70 to 94), MbYTH fusion] | binds | binds
B4 | no binding | no binding
